Assay results: article PMC6966663 (Cancers, 2019)
In brackets after ≈: the same amount, converted by molar mass.

Key:
[1] = in vivo
Text: Descriptive statistics were used to summarize demographic data, other baseline characteristics, AEs, safety parameters, and tumor assessment data. […] All subjects who completed the study were included in the evaluation of PD/PK. […] The incidence of treatment-emergent adverse events and drug-related adverse events, respectively, was summarized by treatment in frequency tables using the CTCAE grade.

[2] = 80 mg QD, n = 3
[3] = test system: p-AKT
[4] = test system: p-PRAS40; conditions: MTD dose level; TRAP-stimulated platelets, relative to baseline, normalized to total PRAS40
[5] = clinical; conditions: human, in vivo, 80 mg, geometric mean (%CV), 80 mg QD single dose, n = 3
[6] = test system: p-AKT; experiment: animal or person; conditions: Homo sapiens, read-out: IC50 for p-AKT (clinical PK/PD, plasma concentration)

## NC(=O)c1ccc2nc(-c3ccc(C4(N)CCC4)cc3)c(-c3ccccc3)n2n1 [BAY 1125976]
[1]; human, po
  MTD in the QD schedule: 80 mg
[1]
  Dose-limiting toxicity: no dose-limiting toxicity was observed
[2]
  Increase of AUC after high-fat, high-calorie meal vs fasted: 16%
  Reduction of Cmax after high-fat, high-calorie meal vs fasted: 27%
[3]; MTD dose level, TRAP-stimulated platelets, relative to baseline, normalized to total AKT
  Suppression of p-AKT: more than 70%
[3]; both dosing schedules
  Time of transient maximum inhibition of AKT phosphorylation post-treatment: 4 h
[4]
  Suppression of p-PRAS40: more than 30%
[5]; fasted condition (C1D1)
  Cmax: 28.8 ng/mL
[5]; fed condition (C1D-3)
  Cmax: 21.1 ng/mL
[6]
  IC50: ~5 ng/mL (≈ 0.013 µM)
